Some of the results follow. The main result of the screen is listed elsewhere. These columns were measured beside it and carry no call. The list favours compounds with an active or inconclusive main result. Potencies come from curve fits of mixed quality, noted in brackets.
Assay: Cell signaling CRE-BLA (Fsk stim)
Conditions: CHO CRE-bla reporter (cAMP response element driving beta-lactamase), forskolin EC10, beta-lactamase ratio; measured here: 460 nm blue channel
Summary of the method: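 qHTS titration format; CRE-bla CHO reporter; stimulus EC10 NKH 477, a water-soluble forskolin. Read: CCF4 460/530 nm ratio. Potency expressed as AC50 for activators or inhibitors.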

Compound | AC50
Cc1ccc(Cn2nnc3c(=O)[nH]c(C(=O)NCc4ccco4)nc32)cc1 | 12.6 µM [rising, single point]
Cc1cc(C)nc(-n2nc(C)cc2NC(=O)c2ccc(Br)o2)n1 | 1.26 µM [rising, full curve]
COc1cc(OC)c2c(C)cc(=O)oc2c1 | 10 µM [rising, partial curve]
CC(C)N(Cc1nc(-c2ccc(Cl)cc2)no1)C(=O)CCCN1C(=O)c2ccccc2C1=O | 10 µM [falling, single point]
COC(=O)c1ccccc1NC(=O)C1CCN(S(=O)(=O)c2cc(C)ccc2OC)CC1 | 15.8 µM [rising, partial curve]
Cn1c(=O)c2c(-c3ccccc3)n(N3CCOCC3)cc2n(C)c1=O | 1.26 µM [rising, partial curve]
CCn1c2ccccc2c2nnc(NCCCO)nc21 | 3.98 µM [rising, single point]
CCOC(=O)c1sc(NC(=O)c2ccc3ncsc3c2)nc1C | 10 µM [rising, partial curve]
N=c1c(C(=O)NCc2ccc3c(c2)OCO3)cc2c(=O)n3ccccc3nc2n1Cc1cccnc1 | 12.6 µM [rising, partial curve]
Cc1cc(C)c(S(=O)(=O)NCC2CCC(C(=O)NCCCN3CCOCC3)CC2)c(C)c1 (configuration not stated) | 3.16 µM [falling, single point]
CCOc1ccc(C2C(C#N)=C(N)SC(N)=C2C#N)cc1OCC | 7.94 µM [rising, partial curve]
CCOC(=O)Cc1csc(NC(=O)c2ccc(S(=O)(=O)N3CCCCC3)cc2)n1 | 1.26 µM [rising, full curve]
CCCn1c(=O)c2ccccc2n2c(SCCOc3ccccc3)nnc12 | 10 µM [rising, partial curve]
CC(=O)c1cccc(NC(=O)C2CCCN(S(=O)(=O)c3ccccc3)C2)c1 (configuration not stated) | 0.00398 µM [falling, full curve, poor fit]
CCOC(=O)C1CCCN(CC(=O)Nc2c(C(=O)OC)[nH]c3ccccc23)C1 (configuration not stated) | 12.6 µM [rising, partial curve]
Cc1cccc(NC(=O)C2c3ccccc3C(=O)N3CCc4ccccc4C23)n1 (configuration not stated) | 0.316 µM [falling, partial curve]
Cc1ccc(S(=O)(=O)CCC(=O)c2ccc(O)cc2O)cc1 | 12.6 µM [falling, partial curve]
CCC1(c2ccccc2)C(=O)NCNC1=O | 15.8 µM [falling, single point]
Cn1c(=O)c(CCc2ccccc2)nc2cnc(Nc3ccccc3)nc21 | 3.16 µM [rising, full curve]
O=c1cc(-c2c(F)c(F)c(F)c(F)c2F)oc2c(F)c(F)c(F)c(F)c12 | 5.01 µM [falling, full curve]
O=S(=O)(c1ccc(Br)c2nsnc12)N1CCOCC1 | 10 µM [falling, partial curve]
Cn1c(=O)cc(OCCCC(=O)Nc2ccccn2)c2ccccc21 | 25.1 µM [rising, single point]
Cc1ccc(N(C(=O)c2ccc(S(=O)(=O)N3CCOCC3)cc2)C2C=CS(=O)(=O)C2)cc1 (configuration not stated) | 0.0398 µM [falling, full curve, poor fit]

Ordered by length of the SMILES (high to low): part of the list above.
Compound | AC50
Cc1ccc(N(C(=O)c2ccc(S(=O)(=O)N3CCOCC3)cc2)C2C=CS(=O)(=O)C2)cc1 (configuration not stated) | 0.0398 µM [falling, full curve, poor fit]
N=c1c(C(=O)NCc2ccc3c(c2)OCO3)cc2c(=O)n3ccccc3nc2n1Cc1cccnc1 | 12.6 µM [rising, partial curve]
CC(C)N(Cc1nc(-c2ccc(Cl)cc2)no1)C(=O)CCCN1C(=O)c2ccccc2C1=O | 10 µM [falling, single point]
Cc1cc(C)c(S(=O)(=O)NCC2CCC(C(=O)NCCCN3CCOCC3)CC2)c(C)c1 (configuration not stated) | 3.16 µM [falling, single point]
COC(=O)c1ccccc1NC(=O)C1CCN(S(=O)(=O)c2cc(C)ccc2OC)CC1 | 15.8 µM [rising, partial curve]
CCOC(=O)C1CCCN(CC(=O)Nc2c(C(=O)OC)[nH]c3ccccc23)C1 (configuration not stated) | 12.6 µM [rising, partial curve]
CC(=O)c1cccc(NC(=O)C2CCCN(S(=O)(=O)c3ccccc3)C2)c1 (configuration not stated) | 0.00398 µM [falling, full curve, poor fit]
Cc1ccc(Cn2nnc3c(=O)[nH]c(C(=O)NCc4ccco4)nc32)cc1 | 12.6 µM [rising, single point]
Cc1cccc(NC(=O)C2c3ccccc3C(=O)N3CCc4ccccc4C23)n1 (configuration not stated) | 0.316 µM [falling, partial curve]
Cn1c(=O)c2c(-c3ccccc3)n(N3CCOCC3)cc2n(C)c1=O | 1.26 µM [rising, partial curve]
Cc1cc(C)nc(-n2nc(C)cc2NC(=O)c2ccc(Br)o2)n1 | 1.26 µM [rising, full curve]
CCCn1c(=O)c2ccccc2n2c(SCCOc3ccccc3)nnc12 | 10 µM [rising, partial curve]
Cc1ccc(S(=O)(=O)CCC(=O)c2ccc(O)cc2O)cc1 | 12.6 µM [falling, partial curve]
CCn1c2ccccc2c2nnc(NCCCO)nc21 | 3.98 µM [rising, single point]
COc1cc(OC)c2c(C)cc(=O)oc2c1 | 10 µM [rising, partial curve]
CCC1(c2ccccc2)C(=O)NCNC1=O | 15.8 µM [falling, single point]

(list continues)

Compound | AC50
O=C(COC(=O)c1ccccc1NC(=O)c1ccco1)NCCC1=CCCCC1 | 25.1 µM [rising, single point]
C=CCn1c(=O)[nH]c2cc(C(=O)N3CCN(c4cccc(Cl)c4)CC3)ccc2c1=O | 0.2 µM [rising, full curve]
COc1ccc(C2C3=C(CCCC3=O)Nc3nc(C(F)(F)F)nn32)cc1OC (configuration not stated) | 0.00794 µM [falling, full curve, poor fit]
COc1cc(OC)cc(-c2cc3nc(C)c(CCC(=O)O)c(C)n3n2)c1 | 12.6 µM [rising, partial curve]
O=c1c2c(nc3n1CCCCC3)sc1c(O)cccc12 | 25.1 µM [rising, single point]
O=C(Nc1cccc2c1C(=O)NC2=O)c1ccc(S(=O)(=O)N2CCCC2)cc1 | 10 µM [rising, partial curve]
CCn1c(CSc2nccn2C)nc2cc(C(=O)O)ccc21 | 20 µM [rising, single point]
COC(=O)[C@@]1(Cc2ccc(OC)cc2)[C@H]2c3cc(C(=O)N(C)C)n(Cc4nc5ccccc5[nH]4)c3C[C@H]2CN1C(=O)c1ccccc1 | 12.6 µM [rising, partial curve]
Cc1nc2cnc(N(C)C)nc2n(Cc2ccc(F)cc2)c1=O | 2.51 µM [rising, full curve]
O=C(COc1ccccc1)Nn1cnc2ccccc21 | 0.00501 µM [falling, full curve, poor fit]
COC(=O)c1ccccc1NC(=O)CN(C1CCCCC1)S(C)(=O)=O | 2 µM [rising, full curve]
CCOc1ccc(C(N)=O)cc1OC | 0.00398 µM [falling, full curve, poor fit]
Cc1ccc(NC(=O)CSc2nnc(-c3ccccc3C)o2)cc1C | 0.00398 µM [falling, full curve, poor fit]
CCOC(=O)c1c(C)oc2cc(Br)c(O)c(Br)c12 | 12.6 µM [rising, partial curve]
N#CCCn1c(=O)c(-c2cc(F)cc(F)c2)nc2cnc(Nc3ccccc3)nc21 | 1.26 µM [rising, full curve, poor fit]
O=C(NC12CC3CC(CC(C3)C1)C2)c1cc2nc(-c3ccco3)cc(C(F)(F)F)n2n1 | 3.98 µM [rising, full curve]
COC(=O)C1=C(C)N(c2ccc(F)cc2)C(=O)C1 | 10 µM [falling, partial curve]
O=C(Nc1nc2c(s1)CCc1ccccc1-2)c1cccs1 | 25.1 µM [rising, single point]
COc1ccc(N(CC(=O)Nc2ccc3c(c2)OCCO3)S(=O)(=O)c2c(C)noc2C)cc1 | 0.0794 µM [rising, full curve, poor fit]
O=S(=O)(NCc1ccncc1)c1ccc(S(=O)(=O)NCC2CCCO2)cc1 (configuration not stated) | 0.126 µM [falling, partial curve, poor fit]
COC(=O)C1=C(C)N(c2cccc(Cl)c2)C(=O)C1 | 12.6 µM [falling, partial curve]
COc1ccc(-c2nc3scc(-c4ccccc4)n3n2)cc1 | 12.6 µM [falling, partial curve]
COc1cccc(CNC(=O)CCCNS(=O)(=O)c2cccs2)c1 | 20 µM [falling, single point]

Compound | AC50
Cc1sc2nc(SCC(=O)NCCOCCO)n(C)c(=O)c2c1C | 0.00398 µM [falling, full curve]
COCCNC(=O)CN1CCN(C(c2ccccc2)c2ccccc2)CC1 | 0.501 µM [falling, full curve]
CCn1c2ccccc2c2cc(Nc3cc(C)nc4ncnn34)ccc21 | 0.631 µM [rising, full curve]
Cc1ccc(O)c(C(=O)CC(=O)c2cccc(F)c2)c1 | 3.16 µM [falling, partial curve]
COc1ccccc1C(=O)Nc1ccc2oc(-c3ccc(F)cc3)nc2c1 | 12.6 µM [rising, partial curve]
Cc1ccc(S(=O)(=O)NCC2CCC(C(=O)NCc3ccco3)CC2)cc1 (configuration not stated) | 5.01 µM [falling, full curve, poor fit]
COC(=O)C1CCN(C(=O)COc2cc3sc(C)nc3c3sccc23)CC1 | 12.6 µM [rising, partial curve]
CCOc1ccc(OCC)c(NS(=O)(=O)c2ccc3c(c2)n(C)c(=O)c(=O)n3C)c1 | 3.16 µM [rising, single point]
COc1cccc(-c2cc(NCc3cnc(C)cn3)ncn2)c1 | 10 µM [rising, partial curve]
N#CCCn1c(=O)c(-c2cccs2)nc2cnc(Oc3ccccc3)nc21 | 7.94 µM [rising, partial curve]
O=c1c2cccc3c2c(nn1CN1CCOCC1)-c1ccccc1-3 | 12.6 µM [rising, partial curve]
N#C/C(=C(/O)CN1C(=O)c2ccccc2C1=O)c1nc2ccccc2[nH]1 | 15.8 µM [rising, partial curve]
Cc1ccc(-n2nnnc2SCC(=O)NCCC2=CCCCC2)c(C)c1 | 20 µM [falling, single point]
O=C(Cc1c(C(=O)O)[nH]c2ccc(Cl)cc12)Nc1ccc2c(c1)OCCO2 | 2.51 µM [falling, partial curve]
COc1ccc(Oc2ncc3nc(-c4ccc(Cl)cc4)c(=O)n(C[C@H]4CCCO4)c3n2)cc1 | 0.398 µM [rising, single point]
CCOC(=O)c1c(-c2ccccc2)csc1NC(=O)CSc1nnnn1C | 1 µM [rising, full curve]
O=C(COC(=O)c1ccco1)NCc1cccs1 | 0.316 µM [falling, partial curve]
COc1ccc(-c2nc(-c3ccccc3OC)no2)cc1OC | 0.631 µM [rising, full curve]
C=CCn1c(Br)nc2c1c(=O)n(C)c(=O)n2C | 12.6 µM [rising, single point]
Cc1ccc(C)c(Cn2nnc3c(=O)[nH]c(C4CCN(C(=O)c5cccs5)CC4)nc32)c1 | 10 µM [rising, partial curve]
Oc1c(C(c2ccccc2)N2CCc3ccccc3C2)sc2ncnn12 (configuration not stated) | 25.1 µM [rising, single point]
